# The list shows a part of the results.
# Amino acid sequences for entries named in this document (tags omitted). A change or cut given only in a name is not applied to a line headed by its entry.
# UniProt P78509: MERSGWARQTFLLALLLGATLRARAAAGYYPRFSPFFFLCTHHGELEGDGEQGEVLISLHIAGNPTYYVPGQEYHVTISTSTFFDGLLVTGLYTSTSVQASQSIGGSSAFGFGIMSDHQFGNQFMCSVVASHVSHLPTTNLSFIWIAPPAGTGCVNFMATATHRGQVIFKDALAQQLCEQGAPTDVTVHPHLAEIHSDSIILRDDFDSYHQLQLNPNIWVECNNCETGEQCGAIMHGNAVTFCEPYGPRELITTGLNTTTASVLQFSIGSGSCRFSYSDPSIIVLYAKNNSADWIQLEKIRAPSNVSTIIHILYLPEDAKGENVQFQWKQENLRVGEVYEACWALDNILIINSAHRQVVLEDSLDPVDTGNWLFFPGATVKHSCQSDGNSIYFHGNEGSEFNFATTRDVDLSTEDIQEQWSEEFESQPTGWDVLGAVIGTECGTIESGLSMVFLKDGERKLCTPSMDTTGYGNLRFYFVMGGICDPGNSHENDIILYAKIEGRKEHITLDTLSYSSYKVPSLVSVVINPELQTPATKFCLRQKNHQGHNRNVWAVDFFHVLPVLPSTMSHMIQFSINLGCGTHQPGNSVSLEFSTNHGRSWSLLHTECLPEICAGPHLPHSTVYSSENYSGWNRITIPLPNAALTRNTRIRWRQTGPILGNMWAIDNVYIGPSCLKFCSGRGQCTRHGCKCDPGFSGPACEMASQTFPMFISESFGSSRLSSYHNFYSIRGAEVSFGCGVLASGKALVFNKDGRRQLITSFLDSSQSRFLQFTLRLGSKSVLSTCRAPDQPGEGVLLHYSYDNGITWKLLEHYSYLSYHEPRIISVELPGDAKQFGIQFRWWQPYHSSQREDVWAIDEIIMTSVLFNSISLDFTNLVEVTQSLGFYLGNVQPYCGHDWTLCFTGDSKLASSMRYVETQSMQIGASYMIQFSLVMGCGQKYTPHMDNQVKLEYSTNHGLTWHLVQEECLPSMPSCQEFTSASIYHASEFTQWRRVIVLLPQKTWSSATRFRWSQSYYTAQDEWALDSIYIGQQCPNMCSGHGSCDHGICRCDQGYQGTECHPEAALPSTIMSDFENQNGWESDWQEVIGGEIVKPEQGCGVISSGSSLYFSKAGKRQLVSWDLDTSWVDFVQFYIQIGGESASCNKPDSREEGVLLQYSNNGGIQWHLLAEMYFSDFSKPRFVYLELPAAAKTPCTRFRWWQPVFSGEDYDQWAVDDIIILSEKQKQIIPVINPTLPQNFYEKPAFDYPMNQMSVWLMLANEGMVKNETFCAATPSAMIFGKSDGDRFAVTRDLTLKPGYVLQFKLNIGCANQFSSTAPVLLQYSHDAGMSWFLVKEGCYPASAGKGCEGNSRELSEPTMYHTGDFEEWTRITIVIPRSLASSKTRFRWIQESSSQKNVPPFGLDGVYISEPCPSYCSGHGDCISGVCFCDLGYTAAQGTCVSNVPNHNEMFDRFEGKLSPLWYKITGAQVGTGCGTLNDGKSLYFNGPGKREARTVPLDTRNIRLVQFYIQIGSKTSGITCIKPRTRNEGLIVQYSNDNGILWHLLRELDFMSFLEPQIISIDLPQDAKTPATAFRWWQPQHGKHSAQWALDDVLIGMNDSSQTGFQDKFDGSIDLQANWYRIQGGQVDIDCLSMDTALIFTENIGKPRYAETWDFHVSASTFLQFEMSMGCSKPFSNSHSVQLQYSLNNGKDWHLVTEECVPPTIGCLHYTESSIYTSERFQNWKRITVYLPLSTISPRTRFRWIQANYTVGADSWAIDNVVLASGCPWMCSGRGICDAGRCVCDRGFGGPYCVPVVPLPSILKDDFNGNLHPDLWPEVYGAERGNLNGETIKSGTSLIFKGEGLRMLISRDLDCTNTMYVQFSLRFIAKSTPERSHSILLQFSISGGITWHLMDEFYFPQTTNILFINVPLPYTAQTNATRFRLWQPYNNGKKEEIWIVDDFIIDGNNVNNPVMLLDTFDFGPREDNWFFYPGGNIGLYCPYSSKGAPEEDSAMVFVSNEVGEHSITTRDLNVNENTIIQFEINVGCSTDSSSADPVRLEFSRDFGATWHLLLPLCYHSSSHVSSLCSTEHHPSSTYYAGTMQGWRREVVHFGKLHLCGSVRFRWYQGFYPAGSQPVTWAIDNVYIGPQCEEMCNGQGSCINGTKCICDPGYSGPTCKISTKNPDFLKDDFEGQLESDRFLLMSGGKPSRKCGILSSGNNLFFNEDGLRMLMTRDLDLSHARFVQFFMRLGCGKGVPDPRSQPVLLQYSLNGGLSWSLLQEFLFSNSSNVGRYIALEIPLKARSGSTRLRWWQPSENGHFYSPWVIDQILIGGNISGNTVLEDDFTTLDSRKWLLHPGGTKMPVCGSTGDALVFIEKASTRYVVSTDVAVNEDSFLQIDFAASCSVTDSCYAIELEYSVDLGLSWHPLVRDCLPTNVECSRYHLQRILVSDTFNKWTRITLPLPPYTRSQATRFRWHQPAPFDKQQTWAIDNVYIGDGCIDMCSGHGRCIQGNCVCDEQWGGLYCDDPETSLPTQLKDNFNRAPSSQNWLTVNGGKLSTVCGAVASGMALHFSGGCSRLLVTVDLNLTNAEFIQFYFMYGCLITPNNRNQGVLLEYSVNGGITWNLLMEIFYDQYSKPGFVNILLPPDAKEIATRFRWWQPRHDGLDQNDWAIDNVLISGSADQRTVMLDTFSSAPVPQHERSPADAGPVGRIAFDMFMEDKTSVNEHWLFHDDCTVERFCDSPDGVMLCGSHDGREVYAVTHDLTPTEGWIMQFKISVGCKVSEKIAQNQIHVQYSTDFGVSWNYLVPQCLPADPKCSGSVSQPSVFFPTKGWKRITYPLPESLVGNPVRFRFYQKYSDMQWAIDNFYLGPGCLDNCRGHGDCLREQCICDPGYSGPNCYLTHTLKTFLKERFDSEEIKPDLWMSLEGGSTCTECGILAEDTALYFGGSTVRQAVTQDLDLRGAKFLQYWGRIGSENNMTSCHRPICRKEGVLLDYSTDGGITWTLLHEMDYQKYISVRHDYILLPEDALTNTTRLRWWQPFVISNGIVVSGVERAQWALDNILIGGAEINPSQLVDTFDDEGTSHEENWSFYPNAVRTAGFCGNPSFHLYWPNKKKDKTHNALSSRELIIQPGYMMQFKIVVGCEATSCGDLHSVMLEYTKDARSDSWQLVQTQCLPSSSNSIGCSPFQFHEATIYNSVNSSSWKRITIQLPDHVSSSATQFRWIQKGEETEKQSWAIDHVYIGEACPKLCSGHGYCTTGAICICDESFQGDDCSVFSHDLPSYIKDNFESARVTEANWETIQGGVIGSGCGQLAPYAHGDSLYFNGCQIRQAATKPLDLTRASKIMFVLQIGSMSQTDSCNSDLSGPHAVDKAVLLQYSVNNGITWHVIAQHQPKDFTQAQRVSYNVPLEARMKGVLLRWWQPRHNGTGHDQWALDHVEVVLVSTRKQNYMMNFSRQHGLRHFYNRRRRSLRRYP
# UniProt Q96D71: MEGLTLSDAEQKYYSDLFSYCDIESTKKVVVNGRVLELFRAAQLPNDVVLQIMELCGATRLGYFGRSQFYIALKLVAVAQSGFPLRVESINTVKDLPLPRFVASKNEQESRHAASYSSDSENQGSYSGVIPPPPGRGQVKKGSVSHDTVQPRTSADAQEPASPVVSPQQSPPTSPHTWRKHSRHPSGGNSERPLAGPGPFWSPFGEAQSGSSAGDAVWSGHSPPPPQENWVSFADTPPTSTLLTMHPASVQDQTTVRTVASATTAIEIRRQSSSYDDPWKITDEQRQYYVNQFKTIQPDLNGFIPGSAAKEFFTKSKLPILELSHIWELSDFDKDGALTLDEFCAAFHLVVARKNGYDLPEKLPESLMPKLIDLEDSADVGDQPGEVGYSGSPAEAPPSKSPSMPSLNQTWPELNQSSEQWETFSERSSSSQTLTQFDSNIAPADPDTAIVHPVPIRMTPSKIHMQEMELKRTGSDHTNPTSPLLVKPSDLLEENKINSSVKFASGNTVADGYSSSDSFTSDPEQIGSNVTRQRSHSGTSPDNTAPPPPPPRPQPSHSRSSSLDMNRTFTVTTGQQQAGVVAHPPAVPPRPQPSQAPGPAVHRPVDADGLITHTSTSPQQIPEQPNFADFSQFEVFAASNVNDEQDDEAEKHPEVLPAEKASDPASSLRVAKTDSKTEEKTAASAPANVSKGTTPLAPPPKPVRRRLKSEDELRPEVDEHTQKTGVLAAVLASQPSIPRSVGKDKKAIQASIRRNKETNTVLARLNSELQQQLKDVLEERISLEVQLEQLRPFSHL
# UniProt Q9BWE0: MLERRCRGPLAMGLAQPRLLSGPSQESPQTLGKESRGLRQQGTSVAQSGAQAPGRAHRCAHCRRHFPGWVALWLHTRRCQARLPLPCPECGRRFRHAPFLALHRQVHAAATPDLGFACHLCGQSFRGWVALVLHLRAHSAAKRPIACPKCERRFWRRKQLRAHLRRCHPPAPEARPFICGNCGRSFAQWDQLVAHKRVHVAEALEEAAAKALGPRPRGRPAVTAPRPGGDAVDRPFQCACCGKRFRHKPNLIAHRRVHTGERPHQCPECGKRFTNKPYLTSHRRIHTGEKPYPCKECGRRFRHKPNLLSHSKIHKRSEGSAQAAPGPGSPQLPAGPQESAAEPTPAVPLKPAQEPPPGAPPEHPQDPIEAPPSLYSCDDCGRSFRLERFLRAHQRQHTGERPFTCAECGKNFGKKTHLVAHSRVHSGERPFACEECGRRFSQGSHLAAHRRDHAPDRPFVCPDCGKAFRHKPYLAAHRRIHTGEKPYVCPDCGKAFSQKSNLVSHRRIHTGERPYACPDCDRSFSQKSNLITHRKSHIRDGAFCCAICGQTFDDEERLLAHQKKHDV
# UniProt P84095: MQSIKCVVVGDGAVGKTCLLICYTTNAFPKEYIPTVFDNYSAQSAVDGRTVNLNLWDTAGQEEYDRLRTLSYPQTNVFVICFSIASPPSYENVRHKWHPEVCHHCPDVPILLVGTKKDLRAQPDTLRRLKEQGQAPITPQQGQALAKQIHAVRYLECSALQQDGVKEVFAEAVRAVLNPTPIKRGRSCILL
# UniProt P82980: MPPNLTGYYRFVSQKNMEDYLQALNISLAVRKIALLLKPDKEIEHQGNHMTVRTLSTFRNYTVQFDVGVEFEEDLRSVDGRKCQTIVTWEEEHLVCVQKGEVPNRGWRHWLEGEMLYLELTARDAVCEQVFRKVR
# UniProt P35249, whole entry, looked up: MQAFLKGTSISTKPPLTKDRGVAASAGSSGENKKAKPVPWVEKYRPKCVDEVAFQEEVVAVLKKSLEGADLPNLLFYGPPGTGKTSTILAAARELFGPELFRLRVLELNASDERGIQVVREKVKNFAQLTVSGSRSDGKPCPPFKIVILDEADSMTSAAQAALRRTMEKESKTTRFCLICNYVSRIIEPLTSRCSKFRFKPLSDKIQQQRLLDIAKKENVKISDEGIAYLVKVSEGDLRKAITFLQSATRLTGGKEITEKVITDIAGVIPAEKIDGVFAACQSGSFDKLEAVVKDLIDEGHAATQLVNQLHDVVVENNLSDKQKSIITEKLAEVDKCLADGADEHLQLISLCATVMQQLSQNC
# UniProt A6NED2: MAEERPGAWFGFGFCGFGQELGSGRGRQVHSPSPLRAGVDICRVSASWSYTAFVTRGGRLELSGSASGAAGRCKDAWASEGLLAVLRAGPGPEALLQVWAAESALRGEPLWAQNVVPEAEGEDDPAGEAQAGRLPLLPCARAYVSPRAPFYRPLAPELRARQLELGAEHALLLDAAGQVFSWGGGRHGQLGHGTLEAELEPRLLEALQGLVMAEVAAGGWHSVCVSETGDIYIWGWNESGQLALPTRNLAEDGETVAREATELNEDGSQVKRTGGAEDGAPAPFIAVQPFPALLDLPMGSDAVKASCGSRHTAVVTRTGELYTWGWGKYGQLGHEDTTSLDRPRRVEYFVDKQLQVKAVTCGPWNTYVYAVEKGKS
# UniProt Q9P258, whole entry, looked up: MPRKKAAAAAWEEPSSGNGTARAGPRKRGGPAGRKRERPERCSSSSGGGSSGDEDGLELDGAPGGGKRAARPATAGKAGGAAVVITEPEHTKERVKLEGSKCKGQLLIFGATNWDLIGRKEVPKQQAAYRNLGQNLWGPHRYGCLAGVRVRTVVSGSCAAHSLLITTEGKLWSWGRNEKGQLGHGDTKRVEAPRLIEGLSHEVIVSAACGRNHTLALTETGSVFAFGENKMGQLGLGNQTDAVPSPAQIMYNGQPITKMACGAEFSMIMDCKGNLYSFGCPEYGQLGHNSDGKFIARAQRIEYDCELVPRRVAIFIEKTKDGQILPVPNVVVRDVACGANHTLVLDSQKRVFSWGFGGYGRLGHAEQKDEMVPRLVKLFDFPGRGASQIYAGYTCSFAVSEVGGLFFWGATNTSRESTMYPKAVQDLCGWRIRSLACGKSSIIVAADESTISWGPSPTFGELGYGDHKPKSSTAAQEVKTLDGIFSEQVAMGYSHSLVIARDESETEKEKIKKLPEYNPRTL
# UniProt Q8TAC1: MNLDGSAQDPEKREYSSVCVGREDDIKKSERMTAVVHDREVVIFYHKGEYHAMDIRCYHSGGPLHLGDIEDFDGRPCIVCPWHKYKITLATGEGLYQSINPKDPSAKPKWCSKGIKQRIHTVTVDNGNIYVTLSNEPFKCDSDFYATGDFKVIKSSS
# Compound: CN(CCOC1=CC=C(C=C1)C[C@H]2C(=O)NC(=O)S2)C3=CC=CC=N3 (racemic) [rosiglitazone]
# Test: log2 fold change, soluble protein after heating vs DMSO (PISA); higher = thermal stabilisation; K562 cells, 10 uM, 30 min; active = over 0.2 and 3.5 SD of the protein, either way, in both replicates (recomputed)
# Outline: (§1)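 Soluble protein was defined as the supernatant after 21,000xg for 90 min. It came from K562 cells at 2×10^6 cells/mL given 10 μM compound for 30 min, heated in aliquots for 3 min across 48°C-58°C, pooled, and extracted in PBS with 0.5% NP-40 at 4°C, and was quantified by TMTpro 16plex LC-MS/MS with equalised channel sums. Thermal stability against control samples, from duplicates, is reported as log2 fold change.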
row,Target,log2 fold change
1,RELN (UniProt P78509),inactive: 0.074
2,RING1 (UniProt Q06587),inactive: 0.059
3,RNASE4 (UniProt P34096),inactive: 0.061
4,RBM42 (UniProt Q9BTD8),inactive: -0.06
5,RFC5 (UniProt P40937),inactive: 0.031
6,REPS1 (UniProt Q96D71),inactive: -0.108
7,RFK (UniProt Q969G6),inactive: 0.039
8,RNF126 (UniProt Q9BV68),inactive: 0.009
9,RFFL (UniProt Q8WZ73),inactive: -0.076
10,REPIN1 isoform 4 (UniProt Q9BWE0),inactive: -0.005
11,RIPK2 (UniProt O43353),inactive: 0.012
12,RIMKLB (UniProt Q9ULI2),inactive: 0.001
13,RCHY1 (UniProt Q96PM5),inactive: -0.044
14,RHOG (UniProt P84095),inactive: -0.006
15,RNF181 (UniProt Q9P0P0),inactive: -0.02
16,RHOC (UniProt P08134),inactive: -0.003

row,Target,log2 fold change
1,RMDN1 (UniProt Q96DB5),inactive: 0.02
2,RIDA (UniProt P52758),inactive: -0.03
3,RILP (UniProt Q96NA2),inactive: 0.018
4,RNF20 (UniProt Q5VTR2),inactive: 0.089
5,RNASEH2B (UniProt Q5TBB1),inactive: 0.122
6,RBP5 (UniProt P82980),inactive: 0.033
7,RNF138 (UniProt Q8WVD3),inactive: 0
8,RNF170 (UniProt Q96K19),inactive: 0.101
9,RMND5A (UniProt Q9H871),inactive: -0.032
10,RFC4 (UniProt P35249),inactive: 0.02
11,RFXAP (UniProt O00287),inactive: -0.004
12,REEP3 (UniProt Q6NUK4),inactive: 0.061
13,RCCD1 (UniProt A6NED2),inactive: -0.03
14,RCC2 (UniProt Q9P258),inactive: 0.034
15,RFC2 (UniProt P35250),inactive: 0.048
16,RFESD isoform 2 (UniProt Q8TAC1),inactive: 0

# Compound: CN1C2=C(C3=C1C(=O)N(N=C3)CC4=CC(=CC=C4)N)SC(=C2)S(=O)C
# Test: as above
# Outline: as §1
row,Target,log2 fold change
1,RELN (UniProt P78509),inactive: 0.062
2,RNF14 (UniProt Q9UBS8),inactive: -0.049
3,RBM42 (UniProt Q9BTD8),inactive: 0.106
4,RFC5 (UniProt P40937),inactive: -0.039
5,REPS1 (UniProt Q96D71),inactive: 0.226
6,RFK (UniProt Q969G6),inactive: 0.016
7,RNF126 (UniProt Q9BV68),inactive: -0.029
8,RFFL (UniProt Q8WZ73),inactive: 0.179
9,REPIN1 isoform 4 (UniProt Q9BWE0),inactive: -0.008
10,RIPK2 (UniProt O43353),inactive: 0.027
11,RCHY1 (UniProt Q96PM5),inactive: -0.107
12,RHOG (UniProt P84095),inactive: -0.041
13,RNF181 (UniProt Q9P0P0),inactive: -0.045
14,RHOC (UniProt P08134),inactive: -0.093
15,RBM4 (UniProt Q9BWF3),inactive: 0.129
16,RMDN1 (UniProt Q96DB5),inactive: -0.073
17,RIDA (UniProt P52758),inactive: -0.062
18,RILP (UniProt Q96NA2),inactive: -0.065

row,Target,log2 fold change
1,RNF20 (UniProt Q5VTR2),inactive: 0
2,RNASEH2B (UniProt Q5TBB1),inactive: -0.065
3,RBM7 (UniProt Q9Y580),inactive: 0.23
4,RCC1 isoform 2 (UniProt P18754),inactive: -0.09
5,RBP5 (UniProt P82980),inactive: -0.093
6,RNF138 (UniProt Q8WVD3),inactive: 0.048
7,RNF170 (UniProt Q96K19),inactive: 0.017
8,RMND5A (UniProt Q9H871),inactive: -0.032
9,RFC4 (UniProt P35249),inactive: -0.045
10,RFXAP (UniProt O00287),inactive: 0.031
11,RIF1 (UniProt Q5UIP0),inactive: 0.314
12,RNF220 (UniProt Q5VTB9),inactive: -0.045
13,REEP3 (UniProt Q6NUK4),inactive: 0.119
14,RCCD1 (UniProt A6NED2),inactive: 0.013
15,RCC2 (UniProt Q9P258),inactive: -0.076
16,RFC2 (UniProt P35250),inactive: -0.028
17,RFESD isoform 2 (UniProt Q8TAC1),inactive: -0.108
18,RIOK2 (UniProt Q9BVS4),inactive: 0.085

# Compound: CN1CCC(CNc2ccc3ncc(-c4cccc(OC(F)(F)F)c4)n3n2)CC1
# Test: as above
# Outline: as §1
row,Target,log2 fold change
1,RELN (UniProt P78509),inactive: 0.165
2,RING1 (UniProt Q06587),inactive: -0.187
3,RNF14 (UniProt Q9UBS8),inactive: -0.025
4,RNASE4 (UniProt P34096),inactive: 0.05
5,RBM42 (UniProt Q9BTD8),inactive: 0.213
6,RFC5 (UniProt P40937),inactive: -0.079
7,REPS1 (UniProt Q96D71),inactive: -0.181
8,RFK (UniProt Q969G6),inactive: -0.011
9,RNF126 (UniProt Q9BV68),inactive: 0.033
10,REPIN1 isoform 4 (UniProt Q9BWE0),inactive: -0.038
11,RIPK2 (UniProt O43353),inactive: -0.096
12,RCHY1 (UniProt Q96PM5),inactive: 0.131
13,RHOG (UniProt P84095),inactive: 0.101
14,RNF181 (UniProt Q9P0P0),inactive: 0.051
15,RHOC (UniProt P08134),inactive: 0.062
16,RBM4 (UniProt Q9BWF3),inactive: -0.091
17,RMDN1 (UniProt Q96DB5),inactive: -0.201
18,RIDA (UniProt P52758),inactive: 0.045

row,Target,log2 fold change
1,RILP (UniProt Q96NA2),inactive: 0
2,RNF20 (UniProt Q5VTR2),inactive: -0.204
3,RNASEH2B (UniProt Q5TBB1),inactive: -0.348
4,RBM7 (UniProt Q9Y580),inactive: -0.26
5,RCC1 isoform 2 (UniProt P18754),inactive: 0.11
6,RBP5 (UniProt P82980),inactive: -0.128
7,RNF138 (UniProt Q8WVD3),inactive: -0.08
8,RNF170 (UniProt Q96K19),inactive: -0.047
9,RMND5A (UniProt Q9H871),inactive: 0.132
10,RFC4 (UniProt P35249),inactive: -0.043
11,RIF1 (UniProt Q5UIP0),inactive: 0.078
12,RNF220 (UniProt Q5VTB9),inactive: 0.003
13,REEP3 (UniProt Q6NUK4),inactive: -0.109
14,RCCD1 (UniProt A6NED2),inactive: -0.048
15,RCC2 (UniProt Q9P258),inactive: -0.043
16,RFC2 (UniProt P35250),inactive: 0.005
17,RFESD isoform 2 (UniProt Q8TAC1),inactive: -0.039
18,RIOK2 (UniProt Q9BVS4),inactive: 0.202

# Reference: the supplement of paper PMC10849652
